These are yes or no findings as the source states them, for the method shown. In cells and extracts the contact can be indirect. Some entries that bind do so weakly or less than the wild type.
How the values were obtained:
[1] = biological target: BICRA (human (endogenous in HEK293T)) (UniProt Q9NZM4); assay: co-IP; reciprocal BICRA immunoprecipitation from HEK293T cell lines stably overexpressing the regular or alternative BRD9 isoform, western blot; control cells with empty lentiviral vector
[2] = biological target: regular BRD9 isoform (Bromodomain Containing 9), FLAG-V5-tagged (human (cDNA of the MEC1 CLL cell line and an SF3B1-mutated CLL case)) (UniProt Q9H8M2); assay: co-IP; V5-tag immunoprecipitation from HEK293T cell lines stably overexpressing the regular or alternative BRD9 isoform, western blot; control cells with empty lentiviral vector

By UniProt entry, the sequences of proteins in these tests, tags left out. Where a name states a change or a piece, a line headed by the entry shows the natural chain unless it says otherwise.
UniProt Q9NZM4: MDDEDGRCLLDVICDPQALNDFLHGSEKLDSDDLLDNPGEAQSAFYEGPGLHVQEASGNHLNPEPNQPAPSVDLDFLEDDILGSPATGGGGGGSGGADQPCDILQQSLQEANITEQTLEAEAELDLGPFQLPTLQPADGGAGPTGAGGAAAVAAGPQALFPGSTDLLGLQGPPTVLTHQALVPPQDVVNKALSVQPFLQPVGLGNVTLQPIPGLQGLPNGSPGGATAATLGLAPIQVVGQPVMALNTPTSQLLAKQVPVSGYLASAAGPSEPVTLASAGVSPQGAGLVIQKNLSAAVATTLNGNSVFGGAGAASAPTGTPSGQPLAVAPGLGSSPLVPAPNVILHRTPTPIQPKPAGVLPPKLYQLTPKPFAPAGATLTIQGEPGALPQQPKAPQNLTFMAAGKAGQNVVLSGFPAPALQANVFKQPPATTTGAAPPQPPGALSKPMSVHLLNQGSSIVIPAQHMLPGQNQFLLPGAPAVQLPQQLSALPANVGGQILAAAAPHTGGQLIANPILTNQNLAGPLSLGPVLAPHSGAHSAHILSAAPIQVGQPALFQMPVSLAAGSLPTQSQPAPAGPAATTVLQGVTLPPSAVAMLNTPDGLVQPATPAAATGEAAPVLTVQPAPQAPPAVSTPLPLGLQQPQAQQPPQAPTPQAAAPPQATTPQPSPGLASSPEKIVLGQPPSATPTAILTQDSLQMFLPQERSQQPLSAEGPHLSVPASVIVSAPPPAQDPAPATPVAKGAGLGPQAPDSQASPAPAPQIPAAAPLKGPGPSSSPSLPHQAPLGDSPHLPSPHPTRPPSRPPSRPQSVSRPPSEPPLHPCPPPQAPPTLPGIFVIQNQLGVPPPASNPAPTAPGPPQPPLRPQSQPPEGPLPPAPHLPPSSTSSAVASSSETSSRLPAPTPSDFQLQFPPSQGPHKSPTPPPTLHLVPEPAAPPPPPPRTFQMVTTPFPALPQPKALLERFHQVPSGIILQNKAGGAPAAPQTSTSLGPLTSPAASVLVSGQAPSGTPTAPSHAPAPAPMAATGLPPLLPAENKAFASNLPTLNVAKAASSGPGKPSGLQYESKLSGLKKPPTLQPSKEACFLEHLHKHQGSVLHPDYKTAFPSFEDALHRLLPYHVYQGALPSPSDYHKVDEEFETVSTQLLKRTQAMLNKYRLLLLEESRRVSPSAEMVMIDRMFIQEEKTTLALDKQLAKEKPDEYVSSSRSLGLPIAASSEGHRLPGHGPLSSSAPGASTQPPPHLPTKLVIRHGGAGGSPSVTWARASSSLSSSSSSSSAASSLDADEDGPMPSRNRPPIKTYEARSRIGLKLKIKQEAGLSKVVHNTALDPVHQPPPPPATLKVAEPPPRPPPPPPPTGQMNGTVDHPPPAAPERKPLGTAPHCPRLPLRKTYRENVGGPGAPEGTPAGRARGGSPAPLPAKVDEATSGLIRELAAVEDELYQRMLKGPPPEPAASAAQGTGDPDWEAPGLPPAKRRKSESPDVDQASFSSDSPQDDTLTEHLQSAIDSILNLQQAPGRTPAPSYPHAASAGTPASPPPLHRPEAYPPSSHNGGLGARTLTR
UniProt Q9H8M2: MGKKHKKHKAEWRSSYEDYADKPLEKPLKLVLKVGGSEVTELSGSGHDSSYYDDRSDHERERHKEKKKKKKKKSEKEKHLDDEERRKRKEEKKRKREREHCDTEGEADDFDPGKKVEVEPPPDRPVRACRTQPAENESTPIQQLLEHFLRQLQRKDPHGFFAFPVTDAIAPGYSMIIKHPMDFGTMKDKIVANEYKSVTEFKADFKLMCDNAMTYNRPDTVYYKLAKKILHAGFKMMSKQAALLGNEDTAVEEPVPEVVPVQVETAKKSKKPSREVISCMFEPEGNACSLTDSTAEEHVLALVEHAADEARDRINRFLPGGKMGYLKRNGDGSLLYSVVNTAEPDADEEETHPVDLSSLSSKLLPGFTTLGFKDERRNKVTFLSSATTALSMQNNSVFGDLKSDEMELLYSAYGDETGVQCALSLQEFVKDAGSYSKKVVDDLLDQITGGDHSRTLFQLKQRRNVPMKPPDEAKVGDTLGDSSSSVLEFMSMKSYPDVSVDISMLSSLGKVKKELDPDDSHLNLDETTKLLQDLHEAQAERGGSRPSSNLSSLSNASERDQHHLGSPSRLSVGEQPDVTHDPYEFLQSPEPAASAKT
UniProt P51532: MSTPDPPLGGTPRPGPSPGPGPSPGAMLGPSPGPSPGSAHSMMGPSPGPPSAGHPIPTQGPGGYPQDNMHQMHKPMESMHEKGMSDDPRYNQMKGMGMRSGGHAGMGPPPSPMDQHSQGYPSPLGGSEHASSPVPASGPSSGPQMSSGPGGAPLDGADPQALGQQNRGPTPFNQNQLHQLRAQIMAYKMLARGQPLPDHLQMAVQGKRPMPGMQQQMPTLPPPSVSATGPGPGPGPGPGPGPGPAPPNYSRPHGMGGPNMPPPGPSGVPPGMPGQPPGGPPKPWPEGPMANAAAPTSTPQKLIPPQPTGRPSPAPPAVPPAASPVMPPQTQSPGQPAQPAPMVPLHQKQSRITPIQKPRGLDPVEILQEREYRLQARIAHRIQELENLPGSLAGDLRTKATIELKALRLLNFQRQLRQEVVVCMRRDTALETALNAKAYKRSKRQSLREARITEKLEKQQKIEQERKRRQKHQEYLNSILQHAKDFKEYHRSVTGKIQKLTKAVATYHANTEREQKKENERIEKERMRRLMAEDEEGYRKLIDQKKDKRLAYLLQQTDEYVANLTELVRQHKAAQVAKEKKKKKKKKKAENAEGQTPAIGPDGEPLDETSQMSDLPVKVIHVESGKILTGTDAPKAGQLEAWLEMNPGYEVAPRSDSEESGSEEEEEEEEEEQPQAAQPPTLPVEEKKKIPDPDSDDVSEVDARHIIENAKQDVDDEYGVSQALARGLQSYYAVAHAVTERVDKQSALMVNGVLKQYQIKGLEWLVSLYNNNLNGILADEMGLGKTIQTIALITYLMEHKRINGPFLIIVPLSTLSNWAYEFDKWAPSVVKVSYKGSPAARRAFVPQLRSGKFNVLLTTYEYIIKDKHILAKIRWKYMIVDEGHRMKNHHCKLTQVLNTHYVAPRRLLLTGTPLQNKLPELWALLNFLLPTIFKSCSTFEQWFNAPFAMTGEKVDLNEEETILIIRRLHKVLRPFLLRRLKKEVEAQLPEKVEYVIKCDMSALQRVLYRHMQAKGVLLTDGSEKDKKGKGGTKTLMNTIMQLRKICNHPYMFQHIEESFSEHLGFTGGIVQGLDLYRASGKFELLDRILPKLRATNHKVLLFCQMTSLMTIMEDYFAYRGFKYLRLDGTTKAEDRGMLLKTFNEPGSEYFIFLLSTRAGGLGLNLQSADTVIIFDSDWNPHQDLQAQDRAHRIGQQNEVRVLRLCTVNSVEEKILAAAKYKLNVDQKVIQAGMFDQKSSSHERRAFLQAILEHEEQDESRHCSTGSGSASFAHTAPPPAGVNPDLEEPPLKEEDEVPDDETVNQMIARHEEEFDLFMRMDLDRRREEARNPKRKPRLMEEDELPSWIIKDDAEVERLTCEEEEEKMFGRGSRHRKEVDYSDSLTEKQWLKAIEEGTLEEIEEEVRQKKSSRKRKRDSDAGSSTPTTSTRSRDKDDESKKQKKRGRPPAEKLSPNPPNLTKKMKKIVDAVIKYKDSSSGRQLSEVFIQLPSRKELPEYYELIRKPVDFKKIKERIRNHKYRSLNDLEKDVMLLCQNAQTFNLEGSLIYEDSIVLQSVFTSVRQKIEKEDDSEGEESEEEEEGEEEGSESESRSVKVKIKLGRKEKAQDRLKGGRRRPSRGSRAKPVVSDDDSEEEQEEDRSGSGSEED
UniProt Q92922: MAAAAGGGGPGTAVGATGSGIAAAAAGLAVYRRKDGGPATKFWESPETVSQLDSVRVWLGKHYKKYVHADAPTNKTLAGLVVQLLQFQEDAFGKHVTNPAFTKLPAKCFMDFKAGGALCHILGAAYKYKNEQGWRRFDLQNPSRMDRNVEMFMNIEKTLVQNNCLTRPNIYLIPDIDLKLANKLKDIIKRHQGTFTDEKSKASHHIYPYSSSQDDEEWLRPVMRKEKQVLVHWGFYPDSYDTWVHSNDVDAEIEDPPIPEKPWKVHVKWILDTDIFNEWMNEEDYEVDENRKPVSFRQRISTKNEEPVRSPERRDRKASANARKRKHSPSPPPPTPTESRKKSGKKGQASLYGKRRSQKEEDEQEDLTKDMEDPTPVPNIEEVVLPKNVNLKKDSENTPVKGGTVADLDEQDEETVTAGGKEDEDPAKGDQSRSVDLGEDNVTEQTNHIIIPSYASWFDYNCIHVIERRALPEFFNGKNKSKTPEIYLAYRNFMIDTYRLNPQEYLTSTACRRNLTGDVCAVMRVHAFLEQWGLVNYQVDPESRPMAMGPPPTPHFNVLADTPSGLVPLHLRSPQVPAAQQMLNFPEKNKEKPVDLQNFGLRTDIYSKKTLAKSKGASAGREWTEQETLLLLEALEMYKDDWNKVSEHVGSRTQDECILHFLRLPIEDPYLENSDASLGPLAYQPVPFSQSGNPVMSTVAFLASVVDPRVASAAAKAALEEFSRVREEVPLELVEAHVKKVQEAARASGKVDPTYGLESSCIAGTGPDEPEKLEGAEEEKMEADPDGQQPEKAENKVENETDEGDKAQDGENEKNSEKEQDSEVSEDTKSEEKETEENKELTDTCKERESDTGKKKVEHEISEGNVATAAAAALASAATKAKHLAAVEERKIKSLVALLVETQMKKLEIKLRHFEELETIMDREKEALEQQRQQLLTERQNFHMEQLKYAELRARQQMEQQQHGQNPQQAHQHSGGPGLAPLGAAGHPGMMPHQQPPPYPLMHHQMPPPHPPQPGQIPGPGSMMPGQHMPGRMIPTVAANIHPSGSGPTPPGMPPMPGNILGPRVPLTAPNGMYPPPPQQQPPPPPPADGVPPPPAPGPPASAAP

Row | binding [1] | binding [2] | Substance
1 | binds |  | regular BRD9 isoform (Bromodomain Containing 9), FLAG-V5-tagged (from UniProt Q9H8M2 1-597)
2 | binds | binds | SMARCA4 (from UniProt P51532 1-1647)
3 | binds | binds | SMARCC1 (from UniProt Q92922 1-1105)
4 |  | binds | BICRA (from UniProt Q9NZM4 1-1560)
